Structures can show the parent of a compound that is named as a salt. The list shows a part of the results. Single values of this set are uncertain.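 Yeast growth was read as optical density at 600 nm. The two-hybrid strains grew without histidine, so growth needed the Pex3–Pex19 binding; a compound counted as trypanosome-selective if it cut growth of the trypanosome-pair strain by more than 65% and the human-pair strain by less than 65%.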
Tests used:
[1] = test system: Saccharomyces cerevisiae HF7c pdr5Δ; assay: general growth inhibition of yeast HF7c pdr5Δ in -Leu -Trp medium, relative to DMSO; higher = stronger general growth inhibition; conditions: 100 µM; 24 h
[2] = test system: human PEX3-PEX19 interaction (yeast two-hybrid); assay: growth inhibition of yeast two-hybrid strain reporting HsPex3-HsPex19 interaction, relative to DMSO; higher = stronger inhibition of human Pex3-Pex19 interaction / growth; conditions: 100 µM; 24 h; 3-aminotriazole 10 mM
[3] = test system: T. brucei Pex3-Pex19 interaction (yeast two-hybrid); assay: growth inhibition of yeast two-hybrid strain reporting TbPex3-TbPex19 interaction, relative to DMSO; higher = stronger inhibition of T. brucei Pex3-Pex19 interaction / growth; conditions: 100 µM; 24 h

Compound | general growth inhibition [1] [%] | growth inhibition [2] [%] | growth inhibition [3] [%]
CC(C)C[C@H](NC(=O)[C@H](O)[C@H](N)Cc1ccccc1)C(=O)O [Epibestatin hydrochloride] | 42.1 | 45.9 | 70.3
CCCCCc1ccc(/C=C/C(=O)Nc2cc(Cl)ccc2C(=O)O)cc1 | 19.9 | 18 | 37.3
CCCC(CCC)C(=O)O[C@H]1C[C@H]2CC[C@@H](C1)[N+]2(C)C [Anisotropine methyl bromide] | 4.46 | 3.81 | 25.4
Brc1c(NC2=NCCN2)ccc2nccnc12 | 48.7 | 52.6 | 74.9
CCc1cncnc1N1CCN(Cc2nc3ccc(C(F)(F)F)cc3[nH]2)CC1 | 4.57 | -7.55 | 20.9
S=C(S)N1CCCC1 [Ammonium pyrrolidinedithiocarbamate] | 90.3 | 86.5 | 83.3
CCc1c(C)[nH]c2c1C(=O)C(CN1CCOCC1)CC2 (stereo unspecified) [Molindone hydrochloride] | 44.3 | 45.5 | 72.1
CCN(CC)CCOCCOC(=O)C1(c2ccccc2)CCCC1 [Carbetapentane citrate] | 6.8 | 1.43 | 23.1
NC1CONC1=O (racemic) [DL-Cycloserine] | 49.3 | 31.3 | 66.7
COc1cc(/C=C(\C#N)C(=O)Nc2nnc(C(F)(F)F)s2)ccc1OCc1ccc(C(F)(F)F)cc1C(F)(F)F | 37.8 | 29.1 | 53.8
CN1Cc2sccc2C(c2ccc(O)c(O)c2)C1 (stereo unspecified) | 42.9 | 41.9 | 55.2
Cc1cc(C)c(/C=C2\C(=O)Nc3ccccc32)[nH]1 | 46.2 | 26.8 | 46.5

Single records (already shown). Order of values: general growth inhibition [1] [%] | growth inhibition [2] [%] | growth inhibition [3] [%]
CCN(CC)CCOCCOC(=O)C1(c2ccccc2)CCCC1 [Carbetapentane citrate] is listed as 6.8 | 1.43 | 23.1
CC(C)C[C@H](NC(=O)[C@H](O)[C@H](N)Cc1ccccc1)C(=O)O [Epibestatin hydrochloride] is listed as 42.1 | 45.9 | 70.3
